Source: patent US20260224661A1
These are yes or no findings as the source states them, for the method shown. Some results given as binding are weak or reduced against the parent protein; the word gives no strength.

Protein sequences, listed by entry. Tags and fused reporters are not part of them. Lines headed by an entry give the natural chain unless they say otherwise; changes in a name come on top.
UniProt Q9UKZ4: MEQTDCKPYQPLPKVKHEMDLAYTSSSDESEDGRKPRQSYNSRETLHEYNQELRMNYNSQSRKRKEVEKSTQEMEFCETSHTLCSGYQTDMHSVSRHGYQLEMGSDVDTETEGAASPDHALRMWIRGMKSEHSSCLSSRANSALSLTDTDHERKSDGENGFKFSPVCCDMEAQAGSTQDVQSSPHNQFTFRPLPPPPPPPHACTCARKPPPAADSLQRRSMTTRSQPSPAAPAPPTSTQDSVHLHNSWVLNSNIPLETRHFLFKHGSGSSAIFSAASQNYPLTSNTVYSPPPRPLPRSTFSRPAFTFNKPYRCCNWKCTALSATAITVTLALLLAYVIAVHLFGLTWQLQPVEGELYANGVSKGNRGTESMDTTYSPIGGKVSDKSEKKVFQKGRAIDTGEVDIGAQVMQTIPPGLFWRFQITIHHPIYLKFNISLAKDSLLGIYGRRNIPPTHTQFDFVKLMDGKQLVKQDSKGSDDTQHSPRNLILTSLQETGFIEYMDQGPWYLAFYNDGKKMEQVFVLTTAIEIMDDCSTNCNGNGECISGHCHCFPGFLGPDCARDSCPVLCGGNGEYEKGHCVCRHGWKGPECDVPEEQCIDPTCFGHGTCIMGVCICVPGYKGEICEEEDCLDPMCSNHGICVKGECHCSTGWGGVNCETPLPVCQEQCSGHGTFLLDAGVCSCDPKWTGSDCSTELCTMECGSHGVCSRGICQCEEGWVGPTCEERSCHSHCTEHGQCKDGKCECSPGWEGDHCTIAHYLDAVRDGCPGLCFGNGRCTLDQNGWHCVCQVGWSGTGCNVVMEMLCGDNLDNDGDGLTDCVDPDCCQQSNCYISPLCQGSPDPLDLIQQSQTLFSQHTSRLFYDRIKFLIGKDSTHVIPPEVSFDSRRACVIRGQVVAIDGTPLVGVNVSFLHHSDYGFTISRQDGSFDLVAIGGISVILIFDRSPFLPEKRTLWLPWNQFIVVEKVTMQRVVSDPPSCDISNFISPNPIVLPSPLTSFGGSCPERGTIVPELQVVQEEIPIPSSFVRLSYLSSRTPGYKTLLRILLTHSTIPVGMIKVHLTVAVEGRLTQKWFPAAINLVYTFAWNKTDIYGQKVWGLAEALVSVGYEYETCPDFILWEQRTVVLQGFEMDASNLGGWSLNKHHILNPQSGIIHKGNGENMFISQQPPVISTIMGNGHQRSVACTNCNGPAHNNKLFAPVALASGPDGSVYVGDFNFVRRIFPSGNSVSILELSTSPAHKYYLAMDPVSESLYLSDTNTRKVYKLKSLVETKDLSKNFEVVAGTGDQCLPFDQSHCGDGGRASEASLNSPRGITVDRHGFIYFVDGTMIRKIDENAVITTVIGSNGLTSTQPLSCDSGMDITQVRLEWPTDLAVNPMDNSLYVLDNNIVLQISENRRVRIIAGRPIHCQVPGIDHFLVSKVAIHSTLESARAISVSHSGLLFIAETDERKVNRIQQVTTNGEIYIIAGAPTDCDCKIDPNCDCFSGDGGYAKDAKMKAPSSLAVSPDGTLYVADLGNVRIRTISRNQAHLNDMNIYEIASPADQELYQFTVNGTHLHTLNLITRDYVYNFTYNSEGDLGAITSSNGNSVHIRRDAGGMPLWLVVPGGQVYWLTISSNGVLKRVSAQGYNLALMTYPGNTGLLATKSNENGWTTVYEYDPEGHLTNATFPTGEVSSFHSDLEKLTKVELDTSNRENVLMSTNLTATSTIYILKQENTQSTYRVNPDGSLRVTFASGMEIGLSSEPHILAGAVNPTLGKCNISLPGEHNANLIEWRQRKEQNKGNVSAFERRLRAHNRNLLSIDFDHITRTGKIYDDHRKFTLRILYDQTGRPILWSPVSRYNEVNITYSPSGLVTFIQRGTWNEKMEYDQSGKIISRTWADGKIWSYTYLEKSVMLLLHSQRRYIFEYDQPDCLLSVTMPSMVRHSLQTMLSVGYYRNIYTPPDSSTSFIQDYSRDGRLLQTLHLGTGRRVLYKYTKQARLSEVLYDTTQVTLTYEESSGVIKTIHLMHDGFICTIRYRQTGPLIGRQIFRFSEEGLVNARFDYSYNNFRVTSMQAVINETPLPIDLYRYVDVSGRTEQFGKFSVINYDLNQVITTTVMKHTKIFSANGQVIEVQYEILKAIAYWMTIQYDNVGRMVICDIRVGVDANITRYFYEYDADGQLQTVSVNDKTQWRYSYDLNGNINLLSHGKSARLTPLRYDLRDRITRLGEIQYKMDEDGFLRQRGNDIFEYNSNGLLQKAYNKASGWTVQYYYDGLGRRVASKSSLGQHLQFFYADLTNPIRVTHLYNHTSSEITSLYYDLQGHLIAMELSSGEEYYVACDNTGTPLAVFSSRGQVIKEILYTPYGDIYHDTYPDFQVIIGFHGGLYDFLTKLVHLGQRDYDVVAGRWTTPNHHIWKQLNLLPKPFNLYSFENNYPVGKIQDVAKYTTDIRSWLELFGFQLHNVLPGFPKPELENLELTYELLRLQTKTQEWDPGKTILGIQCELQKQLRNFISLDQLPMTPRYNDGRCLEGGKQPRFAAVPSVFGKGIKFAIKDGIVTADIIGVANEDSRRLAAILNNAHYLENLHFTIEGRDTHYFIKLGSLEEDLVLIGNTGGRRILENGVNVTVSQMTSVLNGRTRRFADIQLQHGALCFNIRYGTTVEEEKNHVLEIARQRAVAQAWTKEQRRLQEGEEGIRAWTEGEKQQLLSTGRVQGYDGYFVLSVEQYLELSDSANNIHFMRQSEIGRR
UniProt Q9NT68: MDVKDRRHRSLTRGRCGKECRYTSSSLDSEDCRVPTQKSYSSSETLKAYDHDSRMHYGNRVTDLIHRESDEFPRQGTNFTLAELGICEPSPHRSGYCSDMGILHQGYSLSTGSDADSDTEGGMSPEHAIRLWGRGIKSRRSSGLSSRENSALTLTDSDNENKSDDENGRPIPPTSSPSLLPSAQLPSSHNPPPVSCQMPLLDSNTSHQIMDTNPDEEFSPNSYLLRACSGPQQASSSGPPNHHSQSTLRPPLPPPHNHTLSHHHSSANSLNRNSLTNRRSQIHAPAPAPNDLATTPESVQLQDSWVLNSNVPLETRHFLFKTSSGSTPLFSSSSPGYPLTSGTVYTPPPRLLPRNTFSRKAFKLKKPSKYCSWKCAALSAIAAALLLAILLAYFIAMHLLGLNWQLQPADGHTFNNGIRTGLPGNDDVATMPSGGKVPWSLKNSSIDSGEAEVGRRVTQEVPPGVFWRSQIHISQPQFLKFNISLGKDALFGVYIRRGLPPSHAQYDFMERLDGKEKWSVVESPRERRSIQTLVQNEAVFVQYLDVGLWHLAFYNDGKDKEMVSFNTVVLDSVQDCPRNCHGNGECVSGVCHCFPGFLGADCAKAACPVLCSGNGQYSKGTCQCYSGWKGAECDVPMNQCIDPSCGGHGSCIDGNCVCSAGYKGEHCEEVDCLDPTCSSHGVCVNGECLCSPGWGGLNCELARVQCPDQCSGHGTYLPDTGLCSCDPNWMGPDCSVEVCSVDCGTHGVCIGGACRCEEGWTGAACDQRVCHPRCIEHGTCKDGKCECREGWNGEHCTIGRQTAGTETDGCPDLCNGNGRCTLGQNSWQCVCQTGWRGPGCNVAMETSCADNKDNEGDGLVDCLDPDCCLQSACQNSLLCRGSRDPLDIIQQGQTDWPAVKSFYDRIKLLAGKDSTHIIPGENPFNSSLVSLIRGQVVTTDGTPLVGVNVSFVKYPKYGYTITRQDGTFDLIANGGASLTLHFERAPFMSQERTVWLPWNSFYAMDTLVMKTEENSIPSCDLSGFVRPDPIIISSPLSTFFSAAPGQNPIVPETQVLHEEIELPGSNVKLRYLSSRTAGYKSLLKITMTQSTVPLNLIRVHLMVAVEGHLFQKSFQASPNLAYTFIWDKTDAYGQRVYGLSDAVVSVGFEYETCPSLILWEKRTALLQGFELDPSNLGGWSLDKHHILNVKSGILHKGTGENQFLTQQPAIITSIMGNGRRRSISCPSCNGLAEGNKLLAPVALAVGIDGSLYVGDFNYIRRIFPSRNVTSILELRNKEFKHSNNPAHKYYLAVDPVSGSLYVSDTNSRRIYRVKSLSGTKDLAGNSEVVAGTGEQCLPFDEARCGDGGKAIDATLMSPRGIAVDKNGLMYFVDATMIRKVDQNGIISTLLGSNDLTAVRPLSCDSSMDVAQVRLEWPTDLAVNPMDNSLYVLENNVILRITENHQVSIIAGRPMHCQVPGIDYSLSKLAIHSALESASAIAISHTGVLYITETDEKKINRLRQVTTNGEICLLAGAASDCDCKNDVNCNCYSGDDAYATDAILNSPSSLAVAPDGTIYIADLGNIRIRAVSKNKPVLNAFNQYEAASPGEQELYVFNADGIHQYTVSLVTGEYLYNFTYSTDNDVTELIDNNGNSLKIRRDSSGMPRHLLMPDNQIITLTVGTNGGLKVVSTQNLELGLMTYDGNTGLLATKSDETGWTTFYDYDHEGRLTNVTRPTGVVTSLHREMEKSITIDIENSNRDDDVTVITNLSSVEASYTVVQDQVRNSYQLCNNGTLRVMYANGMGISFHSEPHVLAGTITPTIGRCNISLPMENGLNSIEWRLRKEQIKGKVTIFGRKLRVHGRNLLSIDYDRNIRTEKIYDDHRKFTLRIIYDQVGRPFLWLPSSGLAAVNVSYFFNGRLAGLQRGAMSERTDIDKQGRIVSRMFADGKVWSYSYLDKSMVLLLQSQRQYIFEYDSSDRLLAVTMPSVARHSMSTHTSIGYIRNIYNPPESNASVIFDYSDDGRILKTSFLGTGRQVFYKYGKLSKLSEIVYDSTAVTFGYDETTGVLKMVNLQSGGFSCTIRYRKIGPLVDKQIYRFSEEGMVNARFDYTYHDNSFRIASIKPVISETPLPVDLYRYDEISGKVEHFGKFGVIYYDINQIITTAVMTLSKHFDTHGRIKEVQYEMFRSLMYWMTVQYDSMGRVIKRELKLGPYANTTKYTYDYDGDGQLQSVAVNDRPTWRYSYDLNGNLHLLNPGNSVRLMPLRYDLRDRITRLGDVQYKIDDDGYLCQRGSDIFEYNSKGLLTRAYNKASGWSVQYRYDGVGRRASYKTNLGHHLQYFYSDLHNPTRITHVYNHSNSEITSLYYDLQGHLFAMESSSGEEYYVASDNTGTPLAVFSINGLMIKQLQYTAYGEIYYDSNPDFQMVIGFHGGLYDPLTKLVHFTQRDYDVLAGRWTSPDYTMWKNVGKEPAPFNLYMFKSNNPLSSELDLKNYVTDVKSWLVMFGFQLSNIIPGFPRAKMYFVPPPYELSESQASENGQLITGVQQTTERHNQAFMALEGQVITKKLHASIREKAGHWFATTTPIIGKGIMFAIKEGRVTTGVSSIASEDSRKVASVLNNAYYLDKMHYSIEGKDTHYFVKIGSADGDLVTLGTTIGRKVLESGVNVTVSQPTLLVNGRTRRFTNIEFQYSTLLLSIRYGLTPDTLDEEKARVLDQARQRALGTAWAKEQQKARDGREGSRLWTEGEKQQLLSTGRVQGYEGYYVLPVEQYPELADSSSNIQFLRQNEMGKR

What was measured:
[1] = target: Tenm1 expressed in HEK293 cells (human) (UniProt Q9UKZ4); assay: surface-binding assay on HEK293 cells expressing Tenm1 (FIG. 4)
[2] = target: Tenm2 expressed in HEK293 cells (human) (UniProt Q9NT68); assay: surface-binding assay on HEK293 cells expressing Tenm2 (FIG. 4)
[3] = target: Tenm1 expressed in HEK293 cells (human) (UniProt Q9UKZ4); assay: surface-binding assay on HEK293 cells expressing Tenm1 (FIG. 4D)
[4] = target: Tenm2 expressed in HEK293 cells (human) (UniProt Q9NT68); assay: surface-binding assay on HEK293 cells expressing Tenm2 (FIG. 4D)

binding [1]: binds | binding [2]: binds | binding [3]: binds | binding [4]: binds
B1: follistatin-like domain of SPARCL1 (ligand)
chain: PNAEPSDEGNSREHSAGSCTNFQCKRGHICKTDPQGKPHCVCQDPETCPPAKILDQACGTDNQTYASSCHLFATKCRLEGTKKGHQLQLDYFGACKSIP
